# Data as given in paper PMC10698284.
# Sequences of proteins named here, by UniProt entry; tags and fusion partners are left off. A change or cut given only in a name is not applied to a line headed by its entry. A line that says so, or that is headed by a name, gives the form on record, which may keep a tag or linker. Residues count along the entry.
# FLAG-SLC3A2 WTseq (P08195, residues 66-630): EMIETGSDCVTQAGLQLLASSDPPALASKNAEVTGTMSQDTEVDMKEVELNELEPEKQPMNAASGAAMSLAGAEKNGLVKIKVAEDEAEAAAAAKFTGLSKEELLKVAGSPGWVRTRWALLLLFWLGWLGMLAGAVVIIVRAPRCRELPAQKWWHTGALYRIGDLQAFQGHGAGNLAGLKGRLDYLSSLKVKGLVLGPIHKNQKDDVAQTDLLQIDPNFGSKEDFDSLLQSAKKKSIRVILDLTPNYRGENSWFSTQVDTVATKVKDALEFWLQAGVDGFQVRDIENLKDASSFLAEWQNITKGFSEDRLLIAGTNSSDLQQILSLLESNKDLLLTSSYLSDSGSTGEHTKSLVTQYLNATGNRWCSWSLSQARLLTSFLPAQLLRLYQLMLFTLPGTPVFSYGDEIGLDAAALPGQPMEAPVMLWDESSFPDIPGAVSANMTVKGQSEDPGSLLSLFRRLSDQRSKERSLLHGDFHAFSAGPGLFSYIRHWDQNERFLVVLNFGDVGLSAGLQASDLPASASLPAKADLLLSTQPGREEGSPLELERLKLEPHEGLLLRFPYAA
# FLAG-SLC3A2 A273N (P08195, form named): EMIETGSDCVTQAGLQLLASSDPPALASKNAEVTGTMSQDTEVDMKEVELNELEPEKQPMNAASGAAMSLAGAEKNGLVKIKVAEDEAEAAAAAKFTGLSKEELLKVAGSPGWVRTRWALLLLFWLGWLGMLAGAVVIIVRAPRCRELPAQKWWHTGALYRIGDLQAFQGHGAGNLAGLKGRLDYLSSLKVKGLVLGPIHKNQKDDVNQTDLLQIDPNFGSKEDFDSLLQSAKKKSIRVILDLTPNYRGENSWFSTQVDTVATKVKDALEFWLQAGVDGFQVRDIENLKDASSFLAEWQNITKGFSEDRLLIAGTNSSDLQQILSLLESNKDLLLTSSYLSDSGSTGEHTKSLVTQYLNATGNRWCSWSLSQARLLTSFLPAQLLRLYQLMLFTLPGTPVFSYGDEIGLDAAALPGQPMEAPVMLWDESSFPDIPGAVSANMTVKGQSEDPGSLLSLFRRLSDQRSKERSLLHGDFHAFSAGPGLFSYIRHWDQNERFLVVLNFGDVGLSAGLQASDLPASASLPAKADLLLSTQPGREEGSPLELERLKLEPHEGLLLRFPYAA
# FLAG-SLC3A2 A273N + D355N (P08195, form named): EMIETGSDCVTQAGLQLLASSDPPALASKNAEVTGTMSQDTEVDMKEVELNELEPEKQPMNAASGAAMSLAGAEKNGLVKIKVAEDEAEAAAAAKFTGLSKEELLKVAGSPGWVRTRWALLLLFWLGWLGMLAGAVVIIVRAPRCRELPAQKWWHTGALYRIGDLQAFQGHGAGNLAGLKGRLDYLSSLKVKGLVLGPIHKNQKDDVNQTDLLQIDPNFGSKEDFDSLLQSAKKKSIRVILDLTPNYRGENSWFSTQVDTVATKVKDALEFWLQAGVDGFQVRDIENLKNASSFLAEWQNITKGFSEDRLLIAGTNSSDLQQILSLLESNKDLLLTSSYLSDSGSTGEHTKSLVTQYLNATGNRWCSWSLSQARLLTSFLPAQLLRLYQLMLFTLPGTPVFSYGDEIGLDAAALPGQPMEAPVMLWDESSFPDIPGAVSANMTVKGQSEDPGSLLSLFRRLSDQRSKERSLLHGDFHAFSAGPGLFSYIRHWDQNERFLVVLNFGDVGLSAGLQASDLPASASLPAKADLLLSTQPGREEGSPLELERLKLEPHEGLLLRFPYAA
# UniProt P04792: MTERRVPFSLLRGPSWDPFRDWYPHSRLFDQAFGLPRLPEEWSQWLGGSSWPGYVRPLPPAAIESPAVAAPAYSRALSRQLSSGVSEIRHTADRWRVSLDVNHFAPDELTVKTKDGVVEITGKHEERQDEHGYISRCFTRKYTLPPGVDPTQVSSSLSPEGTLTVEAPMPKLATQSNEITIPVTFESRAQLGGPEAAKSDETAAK
# UniProt Q9H9S3: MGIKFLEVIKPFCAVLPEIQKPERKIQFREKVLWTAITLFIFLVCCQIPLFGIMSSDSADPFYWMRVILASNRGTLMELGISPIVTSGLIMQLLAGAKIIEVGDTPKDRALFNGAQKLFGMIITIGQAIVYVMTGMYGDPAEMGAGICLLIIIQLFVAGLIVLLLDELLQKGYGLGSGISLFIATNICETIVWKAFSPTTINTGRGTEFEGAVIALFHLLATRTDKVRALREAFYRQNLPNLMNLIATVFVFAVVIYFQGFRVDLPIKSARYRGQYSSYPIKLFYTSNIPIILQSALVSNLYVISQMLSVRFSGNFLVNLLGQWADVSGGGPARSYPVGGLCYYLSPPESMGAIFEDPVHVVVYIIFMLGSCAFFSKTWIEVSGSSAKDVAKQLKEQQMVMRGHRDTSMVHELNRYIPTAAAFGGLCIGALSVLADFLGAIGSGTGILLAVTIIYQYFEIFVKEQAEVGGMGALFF
# UniProt P11142: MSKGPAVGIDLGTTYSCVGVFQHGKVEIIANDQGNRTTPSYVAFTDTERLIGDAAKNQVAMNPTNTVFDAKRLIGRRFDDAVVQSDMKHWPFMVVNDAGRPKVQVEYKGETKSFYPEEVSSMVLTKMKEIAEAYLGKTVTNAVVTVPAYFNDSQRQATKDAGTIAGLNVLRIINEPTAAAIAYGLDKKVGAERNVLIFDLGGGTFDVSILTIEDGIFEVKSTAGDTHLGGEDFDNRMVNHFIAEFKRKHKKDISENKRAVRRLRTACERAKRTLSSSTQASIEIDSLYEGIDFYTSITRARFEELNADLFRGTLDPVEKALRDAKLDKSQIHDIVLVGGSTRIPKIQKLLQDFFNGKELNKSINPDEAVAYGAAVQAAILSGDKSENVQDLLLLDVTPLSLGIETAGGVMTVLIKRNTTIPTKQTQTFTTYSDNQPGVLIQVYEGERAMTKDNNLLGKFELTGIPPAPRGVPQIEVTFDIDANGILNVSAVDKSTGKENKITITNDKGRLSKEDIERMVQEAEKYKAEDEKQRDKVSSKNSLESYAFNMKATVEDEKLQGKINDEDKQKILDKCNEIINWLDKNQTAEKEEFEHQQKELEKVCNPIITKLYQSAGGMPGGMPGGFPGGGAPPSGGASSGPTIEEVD
# UniProt P08238: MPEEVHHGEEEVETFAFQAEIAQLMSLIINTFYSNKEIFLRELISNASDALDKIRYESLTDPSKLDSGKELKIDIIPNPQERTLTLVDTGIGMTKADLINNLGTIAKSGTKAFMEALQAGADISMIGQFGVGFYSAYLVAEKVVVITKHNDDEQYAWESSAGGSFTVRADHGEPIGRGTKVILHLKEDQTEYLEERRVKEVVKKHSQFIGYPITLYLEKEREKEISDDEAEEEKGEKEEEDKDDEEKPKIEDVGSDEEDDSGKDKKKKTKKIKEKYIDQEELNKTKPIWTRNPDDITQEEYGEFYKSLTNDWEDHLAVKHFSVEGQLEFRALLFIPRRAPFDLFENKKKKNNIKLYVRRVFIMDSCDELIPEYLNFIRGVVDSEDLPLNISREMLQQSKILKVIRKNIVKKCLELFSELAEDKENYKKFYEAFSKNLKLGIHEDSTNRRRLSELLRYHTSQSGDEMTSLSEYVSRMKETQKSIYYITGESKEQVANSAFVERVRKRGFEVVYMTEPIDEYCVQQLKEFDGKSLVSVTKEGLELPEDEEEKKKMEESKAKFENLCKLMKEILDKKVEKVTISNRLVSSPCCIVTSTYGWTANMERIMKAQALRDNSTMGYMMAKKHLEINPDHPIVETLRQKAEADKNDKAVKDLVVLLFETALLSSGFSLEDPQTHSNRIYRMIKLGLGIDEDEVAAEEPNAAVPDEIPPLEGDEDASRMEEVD
# UniProt P60468: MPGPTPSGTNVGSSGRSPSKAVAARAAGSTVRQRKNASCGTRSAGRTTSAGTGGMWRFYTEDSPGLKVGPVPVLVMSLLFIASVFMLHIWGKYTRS
# UniProt P16070, residues 21-742: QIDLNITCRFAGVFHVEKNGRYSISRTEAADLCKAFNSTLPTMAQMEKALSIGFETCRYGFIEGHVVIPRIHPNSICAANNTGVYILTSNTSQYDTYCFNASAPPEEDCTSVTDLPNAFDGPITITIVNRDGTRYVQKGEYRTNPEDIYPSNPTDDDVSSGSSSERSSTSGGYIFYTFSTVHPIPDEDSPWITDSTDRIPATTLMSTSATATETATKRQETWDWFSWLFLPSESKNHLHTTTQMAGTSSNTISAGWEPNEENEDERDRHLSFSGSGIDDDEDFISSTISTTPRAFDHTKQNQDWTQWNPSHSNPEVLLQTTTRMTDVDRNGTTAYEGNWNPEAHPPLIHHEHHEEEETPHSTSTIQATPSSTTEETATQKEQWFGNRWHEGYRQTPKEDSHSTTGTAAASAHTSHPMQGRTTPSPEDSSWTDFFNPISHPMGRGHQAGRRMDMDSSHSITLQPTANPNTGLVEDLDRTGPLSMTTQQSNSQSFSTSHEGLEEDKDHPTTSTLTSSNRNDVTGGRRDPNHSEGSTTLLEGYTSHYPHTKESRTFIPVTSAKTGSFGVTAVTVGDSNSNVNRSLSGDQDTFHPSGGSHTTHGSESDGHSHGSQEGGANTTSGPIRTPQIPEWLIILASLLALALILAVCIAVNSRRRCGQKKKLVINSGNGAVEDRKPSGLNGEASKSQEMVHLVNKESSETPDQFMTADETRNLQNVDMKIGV
# UniProt P61619: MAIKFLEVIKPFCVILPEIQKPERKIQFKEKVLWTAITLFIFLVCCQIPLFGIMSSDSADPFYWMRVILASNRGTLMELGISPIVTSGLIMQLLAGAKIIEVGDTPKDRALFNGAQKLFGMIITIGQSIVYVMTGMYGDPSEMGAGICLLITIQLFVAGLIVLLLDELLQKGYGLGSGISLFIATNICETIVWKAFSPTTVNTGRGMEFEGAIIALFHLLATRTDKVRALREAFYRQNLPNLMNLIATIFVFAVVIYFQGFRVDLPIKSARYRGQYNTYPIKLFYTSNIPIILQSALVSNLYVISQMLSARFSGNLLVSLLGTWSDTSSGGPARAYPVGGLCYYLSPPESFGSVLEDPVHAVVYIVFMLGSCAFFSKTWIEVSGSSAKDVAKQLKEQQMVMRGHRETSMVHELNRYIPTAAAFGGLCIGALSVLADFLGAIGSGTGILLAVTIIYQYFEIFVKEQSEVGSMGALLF
# UniProt P11021, residues 19-654: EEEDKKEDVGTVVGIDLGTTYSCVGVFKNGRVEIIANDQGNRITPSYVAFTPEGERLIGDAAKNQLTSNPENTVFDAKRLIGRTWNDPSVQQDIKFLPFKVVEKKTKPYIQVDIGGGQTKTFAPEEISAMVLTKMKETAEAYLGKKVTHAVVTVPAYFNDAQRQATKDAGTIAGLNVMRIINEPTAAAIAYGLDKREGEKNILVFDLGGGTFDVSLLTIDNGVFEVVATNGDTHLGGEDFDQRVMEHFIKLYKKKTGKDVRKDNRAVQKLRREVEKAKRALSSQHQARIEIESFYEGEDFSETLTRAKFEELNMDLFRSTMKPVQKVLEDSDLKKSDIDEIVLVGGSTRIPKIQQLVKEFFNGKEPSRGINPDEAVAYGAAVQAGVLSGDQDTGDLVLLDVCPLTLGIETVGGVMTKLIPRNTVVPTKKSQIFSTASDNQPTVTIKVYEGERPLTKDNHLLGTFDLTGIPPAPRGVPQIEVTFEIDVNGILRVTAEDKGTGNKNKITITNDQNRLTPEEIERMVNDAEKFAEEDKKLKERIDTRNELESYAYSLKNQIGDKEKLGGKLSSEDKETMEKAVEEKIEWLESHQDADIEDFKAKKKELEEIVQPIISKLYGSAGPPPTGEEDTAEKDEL
# UniProt P30825: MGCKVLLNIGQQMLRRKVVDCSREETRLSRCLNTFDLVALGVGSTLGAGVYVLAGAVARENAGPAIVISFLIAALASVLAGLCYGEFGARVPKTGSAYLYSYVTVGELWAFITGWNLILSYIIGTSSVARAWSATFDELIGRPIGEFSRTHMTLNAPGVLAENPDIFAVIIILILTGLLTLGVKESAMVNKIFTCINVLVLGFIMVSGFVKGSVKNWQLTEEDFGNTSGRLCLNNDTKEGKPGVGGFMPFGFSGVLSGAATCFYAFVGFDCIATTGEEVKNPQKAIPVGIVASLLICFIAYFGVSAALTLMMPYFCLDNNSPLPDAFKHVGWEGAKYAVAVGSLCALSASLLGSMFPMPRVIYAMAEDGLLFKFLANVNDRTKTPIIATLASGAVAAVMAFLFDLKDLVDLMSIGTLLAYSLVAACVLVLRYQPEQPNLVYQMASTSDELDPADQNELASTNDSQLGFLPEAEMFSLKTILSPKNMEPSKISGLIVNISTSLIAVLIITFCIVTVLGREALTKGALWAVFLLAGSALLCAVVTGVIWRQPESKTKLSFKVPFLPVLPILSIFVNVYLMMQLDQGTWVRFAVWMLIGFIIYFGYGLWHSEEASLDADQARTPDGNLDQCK
# Key:
# Experiment in all cases: affinity purification with mass spectrometry; anti-FLAG M2 agarose, 4 h at 4 °C, 1 mg lysate (0.5% NP40, 50 mM HEPES pH 8.0, 100 mM KCl, 1 mM EDTA, 10% glycerol) of HeLa Flp-In T-REx SLC3A2 KO cells with dox-induced FLAG-SLC3A2 WTseq or site variants; on-bead trypsin digest, DDA and SWATH; control: dox-treated SLC3A2 KO cells; in some samples 10 μM fluvastatin or 250 ng/ml swainsonine for the final 24 h
# [1] = biological target: FLAG-SLC3A2 A273N (human) (UniProt P08195)
# [2] = biological target: FLAG-SLC3A2 WTseq (human) (UniProt P08195)
# [3] = biological target: FLAG-SLC3A2 A273N + D355N (human) (UniProt P08195)
binding [1],binding [2],binding [3],Substance
binds,binds,–,HSPB1 (from UniProt P04792 1-205)
–,binds,–,ATP1B3 (from UniProt P54709 1-279)
binds,binds,–,SEC61A2 (from UniProt Q9H9S3 1-476)
binds,binds,binds,HSPA8 (from UniProt P11142 1-646)
binds,binds,binds,HSP90AB1 (from UniProt P08238 1-724)
–,binds,–,BSG (from UniProt P35613-2)
–,binds,–,SEC61B (from UniProt P60468 1-96)
–,binds,–,CD44 (from UniProt P16070 21-742)
binds,binds,–,SEC61A1 (from UniProt P61619 1-476)
binds,binds,binds,HSPA5 (from UniProt P11021 19-654)
binds,binds,–,CANX (from UniProt P27824 21-592)
binds,binds,binds,HSP90AA1 (from UniProt P07900 1-732)
–,binds,–,Arg/Lys/Ornithine high-affinity permease SLC7A1 (from UniProt P30825 1-629)

# These are yes or no findings as the source states them, for the method shown. In cells and extracts the contact can be indirect. Here binding means that the protein was enriched with, or labelled near, the bait; the list need not be complete.
